{"source": "patent US11478467B2", "about": "(priority 2017, dated 2022)", "key": {"[1]": {"tested_on": "generalized anxiety disorder", "conditions": "cited from earlier work"}, "[2]": {"tested_on": "[3H]mesulergine binding to choroid plexus", "conditions": "rats; cited from earlier work"}, "[3]": {"tested_on": "hyperactivity in rats after olfactory bulbectomy", "experiment": "Olfactory bulbectomy hyperactivity in rats (deramciclane with dextromethorphan)", "type": "in vivo, rat", "conditions": "up to 30 mg/kg combined with dextromethorphan up to 60 mg/kg per os"}, "[4]": {"tested_on": "discriminative stimulus effects of NMDA receptor channel blockers", "experiment": "Drug discrimination (dizocilpine vs saline) in rats", "type": "in vivo, rat"}}, "note": "Like-named read-outs stand apart in the source and are kept apart here. At least one structure is not confirmed: it was looked up by name or label, or the drawing left a doubt.", "data": [{"smiles": "CN(C)CCO[C@]1(c2ccccc2)C[C@H]2CC[C@]1(C)C2(C)C", "note": "[Compound 829, N,N-dimethyl-2-[[(1R,3S,4R)-4,7,7-trimethyl-3-phenyl-3-bicyclo[2.2.1]heptanyl]oxy]ethanamine]", "values": [{"measurement": "HAM-A total score after 8 weeks of treatment", "setting": "[1]; 10 mg/day vs placebo", "result": "but not in the 10 mg/day group"}, {"measurement": "HAM-A psychic anxiety factor", "setting": "[1]; 30 mg/day and 60 mg/day vs placebo", "result": "significant improvements"}, {"measurement": "HAM-A total score after 8 weeks of treatment", "setting": "[1]; 30 mg/day vs placebo, p=0.059", "result": "a clear trend"}, {"measurement": "HAM-A total score after 8 weeks of treatment", "setting": "[1]; 60 mg/day vs placebo, p=0.024", "result": "reaching statistical significance compared with placebo"}, {"measurement": "dose producing near-maximal inhibition of [3H]mesulergine binding", "setting": "[2]", "result": 0.5, "unit": "mg/kg"}, {"measurement": "anti-hyperactivity effects in bulbectomized rats", "setting": "[3]", "result": "observed at the doses that do not affect activity of sham-operated rats"}, {"measurement": "operant performance (response rate)", "setting": "[4]; deramciclane 3 mg/kg i.p.", "result": "had not significantly impair operant performance"}, {"measurement": "intensity of discriminative stimulus effects of NMDA receptor channel blockers (percent dizocilpine-lever responses)", "setting": "[4]; deramciclane 3 mg/kg i.p. 60 min before, dizocilpine 0.056, memantine 10 or dextromethorphan 30 mg/kg", "result": "significantly reduces the intensity of discriminative stimulus effects"}]}]}
